Experimental data taken from paper PMC5441903, “The E3 ligase ABI3-INTERACTING PROTEIN2 negatively regulates FUSCA3 and plays a role in cotyledon development in Arabidopsis thaliana” (Journal of Experimental Botany, 2017).
These are yes or no findings as the source states them, for the method shown. For some assays here: Binding calls can cover weak binding; strength is not graded here. Tags and fused reporters may be left off the sequences shown. For some assays here: Binding seen in cells or lysates may run through a third protein.

T1: BD-FUS3^N90 (FUS3 N-terminal region, first 90 amino acids including the B2 domain, fused to the LexA DNA-binding domain) (Arabidopsis thaliana) (UniProt Q9LW31)
T1 sequence: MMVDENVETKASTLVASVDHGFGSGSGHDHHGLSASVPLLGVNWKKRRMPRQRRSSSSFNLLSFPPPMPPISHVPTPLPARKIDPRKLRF


Assays:
[1] = biological target: T1, BD-FUS3^N90 (FUS3 N-terminal region, first 90 amino acids including the B2 domain, fused to the LexA DNA-binding domain) (Arabidopsis thaliana); test: two-hybrid; LexA DB fusion of FUS3^N90 (pEG202) and AD fusions of AIP2 variants (pJG4-5) in S. cerevisiae EGY48; growth on -His/-Trp/-Leu/-Ura plates with 2% galactose and 1% raffinose (leucine reporter)
nYFP–MYB49 = test: split reporter; BiFC: nYFP and cYFP fusions transiently co-expressed in N. benthamiana leaves by agroinfiltration, confocal imaging after 48 h

binding [1]	binding (nYFP–MYB49)	Molecule
binds		AD-AIP2^C/S,E/G (RING-inactive AIP2 variant fused to an activation domain) (from UniProt Q8RXD3)
	no binding	FLAG-AIP2-6×His (natural protein, Arabidopsis thaliana, UniProt Q8RXD3 1-310, looked up, tagged protein of ~40 kDa; also called AIP2-His; source: cloned into pET28, purified (Ni-NTA-agarose)) MDASSSPSPSEESLKLELDDLQKQLNKKLRFEASVCSIHNLLRDHYSSSSPSLRKQFYIVVSRVATVLKTRYTATGFWVAGLSLFEEAERLVSDASEKKHLKSCVAQAKEQLSEVDNQPTESSQGYLFEGHLTVDREPPQPQWLVQQNLMSAFASIVGGESSNGPTENTIGETANLMQELINGLDMIIPDILDDGGPPRAPPASKEVVEKLPVIIFTEELLKKFGAEAECCICKENLVIGDKMQELPCKHTFHPPCLKPWLDEHNSCPICRHELPTDDQKYENWKEREKEAEEERKGAENAVRGGEYMYV
